Taken from: PubChem BioAssay AID504764 (Drosophila RNAi Screening Center, 2011)
Assay: 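Knock-downs that raise or lower a Notch target reporter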 (primary screen). Cells: Drosophila Kc167 cells. Knock-down reagent: long dsRNA against Drosophila genes. Time to read-out: about 5 days (4 days dsRNA, then 24 h after transfection). Challenge: transfection of constitutively active membrane-tethered Notch lacking the extracellular domain, read 24 h later. Measurement: 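Light from a Notch-responsive E(spl)m3 luciferase reporter under active Notch, with control-promoter and no-Notch reporter wells to normalise; raw counts from paired wells a and b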. Reading the numbers: induced reporter light, run 1, well a and induced reporter light, run 1, well b: higher = more light from the Notch target reporter with active Notch; control promoter light, run 1, well a and control promoter light, run 1, well b: higher = more light from the viral control promoter (cell number, transfection, viability); uninduced reporter light, run 1, well a: higher = more light from the Notch target reporter without active Notch. Call rule: 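Wells with low control signal or poorly matching duplicates excluded; duplicates averaged; per source plate, z beyond ±2 for induced/control log2 ratio or beyond ±1.8 for induced/uninduced marks a hit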. Calls: active = modifier hit (raised or lowered Notch signal); inactive = not a hit.
The screen tested about 22,000 reagents; below is an unselected part of those with a known target gene and a result. In the full data, 403 (1.9%) got an active call. 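Unnormalised raw counts per well; ratio z-scores behind the hit calls and whether each hit raises or lowers signal are not deposited.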 Reagent sequences are not shown. The record does not give: the amount of reagent.

target	amplicon	induced reporter light, run 1, well a	induced reporter light, run 1, well b	control promoter light, run 1, well a	control promoter light, run 1, well b	uninduced reporter light, run 1, well a	outcome
CG31845 (retired record)	DRSC22257						inactive
Cf2	DRSC00744	15385	12970	12255	9505	7195	inactive
CG14265	DRSC18591	97740	1.09e5	1.43e5	1.24e5	6790	inactive
CG3386	DRSC08566	1.38e5	1.54e5	2.38e5	1.94e5	8765	inactive
CG14490	DRSC06461	76995	1.04e5	1.15e5	1.16e5	6885	inactive
CG15362	DRSC00392	1.26e5	1.40e5	1.04e5	58880	8480	inactive
CG13078	DRSC02182	43380	43775	47150	49205	4015	inactive
RNF220	DRSC15652	1.43e5	1.62e5	2.12e5	2.03e5	15278	inactive
danr	DRSC14651	1.64e5	1.97e5	2.27e5	2.22e5	15795	inactive
Nepl11	DRSC12333	1.18e5	1.01e5	78870	78360	8620	inactive
CG17803	DRSC15275	1.94e5	1.79e5	1.93e5	1.69e5	12435	inactive
CG13082	DRSC02186	22840	24040	24875	17250	1410	inactive
Ir60e	DRSC04227	2.10e5	1.66e5	1.95e5	1.81e5	14815	inactive
LBR	DRSC04298	2.56e5	2.92e5	2.37e5	2.06e5	17500	inactive
Nepl12	DRSC16411	1.58e5	1.60e5	1.60e5	1.27e5	9165	inactive
CG12147	DRSC12192	72590	73365	53360	53030	3945	inactive
CG14492	DRSC06463	85420	1.03e5	1.34e5	1.40e5	8230	inactive
CG2983	DRSC00558	1.40e5	1.57e5	1.13e5	98990	8735	inactive
CG30323	DRSC07656	1.24e5	91900	1.18e5	1.46e5	6800	inactive
Col4a1	DRSC03291	1.73e5	1.75e5	1.82e5	1.73e5	19505	inactive
CG4646	DRSC06876	95820	97955	1.21e5	1.05e5	9340	inactive
Mos	DRSC07258	1.06e5	80550	1.50e5	1.26e5	8565	inactive
CG11159	DRSC06050	1.11e5	1.01e5	1.65e5	1.78e5	5895	inactive
Jig	DRSC14974	3.44e5	2.75e5	2.62e5	2.57e5	21250	inactive
Asator	DRSC17136	1.16e5	1.01e5	1.72e5	1.81e5	8835	inactive
Cyp313a2	DRSC16625	66680	71085	48830	35555	4782	inactive
nmd	DRSC02856	1.88e5	1.89e5	1.71e5	1.67e5	16370	inactive
tpr	DRSC04468	1.05e5	1.26e5	83510	76720	8005	inactive
msopa	DRSC11895	4075	3570	4280	2688	1170	inactive
CG17377	DRSC00950	1.32e5	95090	1.77e5	1.34e5	10705	inactive
CG17377	DRSC02615	1.99e5	2.44e5	2.30e5	2.07e5	19865	inactive
Gasz	DRSC06829	1.21e5	96300	1.10e5	85405	11500	inactive
CG15459	DRSC20530	54970	84160	1.12e5	1.18e5	10920	active
mth	DRSC08725	73230	72855	98735	1.21e5	6078	inactive
CG5435	DRSC02860	96460	1.13e5	1.07e5	1.18e5	9840	inactive
Cyp303a1	DRSC03300	1.22e5	1.20e5	1.32e5	1.50e5	9060	inactive
Cdc27	DRSC11112	49210	48230	37645	16880	3270	inactive
Cyp4ae1	DRSC18455	1.81e5	2.04e5	2.88e5	2.62e5	12265	inactive
Tsc1	DRSC16890	79430	90325	85835	96710	4065	active
Ric	DRSC07532	79165	61865	88000	72665	7345	inactive
CG34408	DRSC17733	1.81e5	1.85e5	2.06e5	1.73e5	11980	inactive
CG34408	DRSC21926						inactive
CecB	DRSC16605	1.66e5	1.39e5	1.94e5	1.89e5	12950	inactive
CG4367	DRSC15568	2.11e5	1.88e5	2.21e5	2.38e5	15975	inactive
ACC	DRSC06059	8080	6210	9510	8320	900	inactive
ACC	DRSC07249	1.18e5	1.14e5	1.39e5	1.54e5	13070	inactive
agt	DRSC12611	95170	1.11e5	93530	69360	7435	inactive
CG15705	DRSC06576	94430	84910	95645	1.04e5	6830	inactive
CG4686	DRSC15622	1.77e5	1.65e5	1.66e5	1.75e5	12230	inactive
CG13721	DRSC08330	1.66e5	1.61e5	1.55e5	1.63e5	7225	inactive

An excerpt of the results above:
target	amplicon	induced reporter light, run 1, well a	induced reporter light, run 1, well b	control promoter light, run 1, well a	control promoter light, run 1, well b	uninduced reporter light, run 1, well a	outcome
Jig	DRSC14974	3.44e5	2.75e5	2.62e5	2.57e5	21250	inactive
Asator	DRSC17136	1.16e5	1.01e5	1.72e5	1.81e5	8835	inactive
Cyp313a2	DRSC16625	66680	71085	48830	35555	4782	inactive
nmd	DRSC02856	1.88e5	1.89e5	1.71e5	1.67e5	16370	inactive
tpr	DRSC04468	1.05e5	1.26e5	83510	76720	8005	inactive
msopa	DRSC11895	4075	3570	4280	2688	1170	inactive
